According to the supplement of paper PMC10331698:
± gives the standard deviation of the averaged measurements. Most values lie at the level of the controls, where differences are scatter.

Columns and labels:
Test in all cases: level (log10 ratio to DMSO vehicle control); higher = higher biomarker level / cell amount than vehicle control
[1] = compound: CN(C(=O)C(F)(F)C(F)(F)C(F)(F)F)[Si](C)(C)C [N-Methyl-N-trimethylsilylheptafluorobutyramide]; settings: 2200 nM; in DMSO
Experimental: (§1)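 BioMAP Diversity Plus panel of 12 human primary cell co-culture systems (3C, 4H, LPS, SAg, BT, BF4T, BE3C, CASM3C, HDF3CGF, KF3CT, MyoF, Mphg). Compounds were added 1 h before stimulation and left for 24 h (MyoF 48 h; BT 72 h for soluble read-outs or 6 d for IgG). Biomarkers were read by ELISA, cytotoxicity by SRB, PBMC viability and proliferation by Alamar Blue. Each well value was divided by the mean of 8 DMSO control wells on the same plate and log10 transformed; duplicate blinded samples were tested at 4 concentrations.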

Perfluoropentanoic acid = compound: O=C(O)C(F)(F)C(F)(F)C(F)(F)C(F)(F)F [Perfluoropentanoic acid]; settings: in DMSO
Experimental: as §1

[2] = compound: O=C(O)C(F)(F)C(F)(F)C(F)(F)C(F)(F)C(F)(F)C(F)(F)C(F)(F)C(F)(F)C(F)(F)C(F)F [11-H-Perfluoroundecanoic acid]; settings: 2200 nM; in DMSO
Experimental: as §1

[3] = compound: NCC(F)(F)C(F)(F)C(F)(F)C(F)(F)C(F)(F)C(F)(F)C(F)(F)F [1H,1H-Perfluorooctylamine]; settings: 2200 nM; in DMSO
Experimental: as §1

[4] = compound: FC(F)(F)C(F)(F)C(F)(F)C(F)(F)C(F)(F)C(F)(F)CC1CO1 [3-(Perfluorohexyl)-1,2-epoxypropane]; settings: 2200 nM; in DMSO
Experimental: as §1

Heptafluorobutyramide = compound: NC(=O)C(F)(F)C(F)(F)C(F)(F)F [Heptafluorobutyramide]; settings: 2200 nM; in DMSO
Experimental: as §1

Perfluoroheptanoic acid = compound: O=C(O)C(F)(F)C(F)(F)C(F)(F)C(F)(F)C(F)(F)C(F)(F)F [Perfluoroheptanoic acid]; settings: in DMSO
Experimental: as §1

1H,1H-Heptafluorobutanol = compound: OCC(F)(F)C(F)(F)C(F)(F)F [1H,1H-Heptafluorobutanol]; settings: 2200 nM; in DMSO
Experimental: as §1

[5] = compound: CC(C)(C)C(=O)CC(=O)C(F)(F)C(F)(F)C(F)(F)F [(Heptafluorobutanoyl)pivaloylmethane]; settings: 2200 nM; in DMSO
Experimental: as §1

[6] = compound: CCN(CCO)S(=O)(=O)C(F)(F)C(F)(F)C(F)(F)C(F)(F)C(F)(F)C(F)(F)C(F)(F)C(F)(F)F [N-Ethyl-N-(2-hydroxyethyl)perfluorooctanesulfonamide]; settings: in DMSO
Experimental: as §1

[7] = compound: OCCC(F)(F)C(F)(F)C(F)(F)C(F)(F)C(F)(F)C(F)(F)F [6:2 Fluorotelomer alcohol]; settings: 2200 nM; in DMSO
Experimental: as §1

[8] = compound: O=C(O)C(F)(F)C(F)(F)C(F)(F)OC(F)(F)F [Perfluoro(4-methoxybutanoic) acid]; settings: 2200 nM; in DMSO
Experimental: as §1

[9] = compound: Cc1ccc(S(=O)(=O)OCC(F)(F)C(F)(F)C(F)(F)C(F)(F)C(F)(F)C(F)F)cc1 [1H,1H,7H-Perfluoroheptyl 4-methylbenzenesulfonate]; settings: 2200 nM; in DMSO
Experimental: as §1

[10] = compound: O=S(=O)(O)CCC(F)(F)C(F)(F)C(F)(F)C(F)(F)C(F)(F)C(F)(F)C(F)(F)C(F)(F)F [8:2 Fluorotelomer sulfonic acid]; settings: in DMSO
Experimental: as §1

Octafluoroadipic acid = compound: O=C(O)C(F)(F)C(F)(F)C(F)(F)C(F)(F)C(=O)O [Octafluoroadipic acid]; settings: 2200 nM; in DMSO
Experimental: as §1

1-(Perfluorohexyl)octane = compound: CCCCCCCCC(F)(F)C(F)(F)C(F)(F)C(F)(F)C(F)(F)C(F)(F)F [1-(Perfluorohexyl)octane]; settings: in DMSO
Experimental: as §1

3C:CXCL8/IL-8
level (log10) [1]: -0.002 ± 0.018
level (log10) (Perfluoropentanoic acid; 2200 nM): 0.0375 ± 0.049
level (log10) (Perfluoropentanoic acid; 6700 nM): -0.0065 ± 0.0092
level (log10) (Perfluoropentanoic acid; 20000 nM): -0.005 ± 0.027
level (log10) (Perfluoropentanoic acid; 60000 nM): 0.03 ± 0.079
level (log10) [2]: 0.0175 ± 0.0035
level (log10) [3]: 0.001 ± 0.042
level (log10) [4]: 0.0035 ± 0.032
level (log10) (Heptafluorobutyramide): 0.021 ± 0.023
level (log10) (Perfluoroheptanoic acid; 2200 nM): 0.029 ± 0.016
level (log10) (Perfluoroheptanoic acid; 6700 nM): 0.0285 ± 0.04
level (log10) (Perfluoroheptanoic acid; 20000 nM): 0.0305 ± 0.056
level (log10) (Perfluoroheptanoic acid; 60000 nM): 0.0955 ± 0.088
level (log10) (1H,1H-Heptafluorobutanol): 0.035 ± 0.0071
level (log10) [5]: -0.0165 ± 0.042
level (log10) ([6]; 2200 nM): 0.05 ± 0.0014
level (log10) ([6]; 6700 nM): 0.02 ± 0.044
level (log10) ([6]; 20000 nM): -0.0985 ± 0.1
level (log10) [7]: 0.0205 ± 0.052
level (log10) [8]: 0.016 ± 0.04
level (log10) [9]: 0.018 ± 0.033
level (log10) ([10]; 2200 nM): 0.017 ± 0.076
level (log10) ([10]; 6700 nM): -0.0005 ± 0.13
level (log10) ([10]; 20000 nM): 0.012 ± 0.057
level (log10) ([10]; 60000 nM): 0.079 ± 0.024
level (log10) (Octafluoroadipic acid): 0.0155 ± 0.025
level (log10) (1-(Perfluorohexyl)octane; 740 nM): 0.002 ± 0.033
level (log10) (1-(Perfluorohexyl)octane; 2200 nM): 0.001

CASM3C:CD106/VCAM-1
level (log10) [1]: -0.018 ± 0.051
level (log10) (Perfluoropentanoic acid; 2200 nM): 0.0195 ± 0.0064
level (log10) (Perfluoropentanoic acid; 6700 nM): -0.0225 ± 0.0078
level (log10) (Perfluoropentanoic acid; 20000 nM): -0.0565 ± 0.029
level (log10) (Perfluoropentanoic acid; 60000 nM): -0.009 ± 0.0057
level (log10) [2]: -0.027 ± 0.016
level (log10) [3]: -0.0125 ± 0.06
level (log10) [4]: -0.0045 ± 0.05
level (log10) (Heptafluorobutyramide): -0.025 ± 0.051
level (log10) (Perfluoroheptanoic acid; 2200 nM): 0.012 ± 0.047
level (log10) (Perfluoroheptanoic acid; 6700 nM): -0.0085 ± 0.0035
level (log10) (Perfluoroheptanoic acid; 20000 nM): -0.0135 ± 0.021
level (log10) (Perfluoroheptanoic acid; 60000 nM): 0.012 ± 0.054
level (log10) (1H,1H-Heptafluorobutanol): 0.034 ± 0.013
level (log10) [5]: 0.0025 ± 0.019
level (log10) ([6]; 2200 nM): -0.0075 ± 0.019
level (log10) ([6]; 6700 nM): -0.085 ± 0.0057
level (log10) ([6]; 20000 nM): -0.219 ± 0.021
level (log10) [7]: 0.0155 ± 0.053
level (log10) [8]: -0.0135 ± 0.05
level (log10) [9]: 0.002
level (log10) ([10]; 2200 nM): 0.018
level (log10) ([10]; 6700 nM): 0.0015 ± 0.029
level (log10) ([10]; 20000 nM): -0.0425 ± 0.025
level (log10) ([10]; 60000 nM): -0.071 ± 0.033
level (log10) (Octafluoroadipic acid): -0.008 ± 0.0057
level (log10) (1-(Perfluorohexyl)octane; 740 nM): -0.0035 ± 0.011
level (log10) (1-(Perfluorohexyl)octane; 2200 nM): -0.01 ± 0.016

3C:CD62E/E-Selectin
level (log10) [1]: -0.018 ± 0.031
level (log10) (Perfluoropentanoic acid; 2200 nM): -0.0065 ± 0.0092
level (log10) (Perfluoropentanoic acid; 6700 nM): -0.0085 ± 0.0035
level (log10) (Perfluoropentanoic acid; 20000 nM): 0.0005 ± 0.0064
level (log10) (Perfluoropentanoic acid; 60000 nM): 0.0175 ± 0.026
level (log10) [2]: -0.0065 ± 0.013
level (log10) [3]: 0.0075 ± 0.054
level (log10) [4]: -0.0055 ± 0.0035
level (log10) (Heptafluorobutyramide): -0.005 ± 0.057
level (log10) (Perfluoroheptanoic acid; 2200 nM): 0.0345 ± 0.0078
level (log10) (Perfluoroheptanoic acid; 6700 nM): 0.007 ± 0.0042
level (log10) (Perfluoroheptanoic acid; 20000 nM): 0.0125 ± 0.0078
level (log10) (Perfluoroheptanoic acid; 60000 nM): 0.0185 ± 0.00071
level (log10) (1H,1H-Heptafluorobutanol): 0.0135 ± 0.023
level (log10) [5]: 0.002 ± 0.02
level (log10) ([6]; 2200 nM): 0.0235 ± 0.016
level (log10) ([6]; 6700 nM): 0.0685 ± 0.012
level (log10) ([6]; 20000 nM): 0.068 ± 0.0057
level (log10) [7]: -0.021 ± 0.062
level (log10) [8]: -0.008 ± 0.03
level (log10) [9]: -0.0035 ± 0.0078
level (log10) ([10]; 2200 nM): 0.008 ± 0.0042
level (log10) ([10]; 6700 nM): 0.013 ± 0.025
level (log10) ([10]; 20000 nM): 0.0385 ± 0.0021
level (log10) ([10]; 60000 nM): 0.0715 ± 0.0078
level (log10) (Octafluoroadipic acid): -0.0075 ± 0.023
level (log10) (1-(Perfluorohexyl)octane; 740 nM): -0.011 ± 0.0014
level (log10) (1-(Perfluorohexyl)octane; 2200 nM): -0.019 ± 0.0085
